Assay results taken from US20140039204A1, “7'-PHLOROECKOL COMPOUND FOR HAIR PROLIFERATION AND A COSMETIC COMPOSITION CONTAINING SAME” (PUKYONG NATIONAL UNIVERSITY INDUSTRY-UNIVERSITY COOPERATION …, priority 2011, published 2014).
At least one compound was matched to its structure with a doubt left.

Tested on: HaCaT (human epidermal keratinocyte)
Assay: MTT assay, cell proliferation of HaCaT
Assay type: cell-based
Conditions: data not illustrated
Procedure: Human Hair Follicle Dermal Papilla Cells (HFDPC) were purchased from Promo Cell (Heidelberg, Germany). Cells were cultured in ready-to-use HFDPC medium, which is composed of Basal Medium, Fetal Calf Serum (FCS), Supplement Kit (Promo Cell, Heidelberg, Germany) including basic FGF and insulin. Kit including HEPES Buffer Saline Solution (HBSS), trypsin/EDTA solution and Trypsin Neutralizing Solution (Promo Cell, Heidelberg, Germany) was used for subculture. Subcultured 4th to 6th TFDPC was used for experiments. HaCaT (human epidermal keratinocyte) was cultured in Dulbecco's modified Eagle's medium (DMEM, Gibco BRL,
3-[4,5-dimethylthiazol-2yl]-2,5 diphenyl tetrazolium bromide (MTT) Assay
Cell proliferation of HFDPC and HaCaT were measured by using MTT method. After cells were seeded in 96-well with serum-free medium, the cells were incubated for 1 day (1.0×10^4 cells/well). Then, we replaced with new medium and cells were treated with 0.01 μM, 0.05 μM, 0.1 μμM, 0.5 μM and 1 μM samples, then incubated for 5 days. MTT solution (5 mg/ml) was added, the cells were cultivated in 37° C. incubator for 3 hours. Then, the medium were removed and the formazan crystal were dissolved with Dimethyl sulfoxide (DMSO), then the absorbance of the solution were measured.
As described in the FIG. 1 and FIG. 2, data were expressed as the percentage on the control that doesn't contain the treated samples. […]

Nc1cc(N2CCCCC2)nc(N)[n+]1[O-] [Minoxidil, reference compound]
cell viability at 1 μM compared to 0.1 μM: decreased cell viability
